Common to all, as to assay: two-hybrid; yeast AH109 co-transformed with an AD-fused and a BD-fused construct; growth on TDO (-L/-W/-H) and QDO (-L/-W/-H/-Ade); mEGFP construct as auto-activation control
The target in experiment [1] is ONE1 (Y2H fusion) (Arabidopsis thaliana) (UniProt F4IWE2).
For experiment [2], the target named is T1, RBR1 (Y2H fusion) (Arabidopsis thaliana) (UniProt Q9LKZ3).
T1 sequence: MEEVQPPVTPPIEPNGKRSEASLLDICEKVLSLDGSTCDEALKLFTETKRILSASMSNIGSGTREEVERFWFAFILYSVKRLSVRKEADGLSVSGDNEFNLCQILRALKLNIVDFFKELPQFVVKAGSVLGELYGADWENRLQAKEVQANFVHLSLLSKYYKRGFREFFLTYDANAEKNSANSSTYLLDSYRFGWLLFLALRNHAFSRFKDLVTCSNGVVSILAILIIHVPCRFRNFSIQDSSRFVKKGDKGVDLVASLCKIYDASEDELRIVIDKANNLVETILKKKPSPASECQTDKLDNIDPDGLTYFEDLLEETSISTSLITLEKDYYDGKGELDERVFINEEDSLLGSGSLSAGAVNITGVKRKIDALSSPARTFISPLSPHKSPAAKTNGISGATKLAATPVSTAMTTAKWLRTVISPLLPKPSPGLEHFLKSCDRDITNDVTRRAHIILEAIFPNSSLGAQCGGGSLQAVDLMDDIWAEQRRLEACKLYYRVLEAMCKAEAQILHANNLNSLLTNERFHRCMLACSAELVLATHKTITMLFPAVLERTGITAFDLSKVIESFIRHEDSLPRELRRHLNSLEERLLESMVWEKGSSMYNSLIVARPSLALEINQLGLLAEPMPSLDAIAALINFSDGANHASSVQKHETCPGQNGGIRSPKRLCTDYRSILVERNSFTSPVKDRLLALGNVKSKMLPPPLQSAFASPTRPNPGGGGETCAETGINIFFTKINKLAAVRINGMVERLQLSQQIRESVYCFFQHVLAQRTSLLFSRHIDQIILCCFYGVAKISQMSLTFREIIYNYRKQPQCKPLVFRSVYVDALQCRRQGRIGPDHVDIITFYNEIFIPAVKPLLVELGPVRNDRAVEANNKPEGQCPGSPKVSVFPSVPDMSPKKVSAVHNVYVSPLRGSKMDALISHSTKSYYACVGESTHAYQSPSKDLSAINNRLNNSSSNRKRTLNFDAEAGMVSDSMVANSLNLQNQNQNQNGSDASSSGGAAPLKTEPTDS

Sequences of proteins named here, by UniProt entry; tags and fusion partners are left off. A change or cut given only in a name is not applied to a line headed by its entry.
UniProt F4IWE2: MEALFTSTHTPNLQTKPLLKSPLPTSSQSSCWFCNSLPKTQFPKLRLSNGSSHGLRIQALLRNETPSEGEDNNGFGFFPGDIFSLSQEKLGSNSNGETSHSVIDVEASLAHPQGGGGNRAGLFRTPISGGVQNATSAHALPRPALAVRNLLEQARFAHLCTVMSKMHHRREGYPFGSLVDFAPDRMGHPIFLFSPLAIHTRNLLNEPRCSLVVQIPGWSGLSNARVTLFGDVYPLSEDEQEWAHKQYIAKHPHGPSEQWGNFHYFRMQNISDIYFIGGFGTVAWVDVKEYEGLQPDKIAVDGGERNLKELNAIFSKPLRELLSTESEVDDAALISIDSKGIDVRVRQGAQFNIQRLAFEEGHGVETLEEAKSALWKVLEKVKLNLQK
UniProt Q8LSZ4: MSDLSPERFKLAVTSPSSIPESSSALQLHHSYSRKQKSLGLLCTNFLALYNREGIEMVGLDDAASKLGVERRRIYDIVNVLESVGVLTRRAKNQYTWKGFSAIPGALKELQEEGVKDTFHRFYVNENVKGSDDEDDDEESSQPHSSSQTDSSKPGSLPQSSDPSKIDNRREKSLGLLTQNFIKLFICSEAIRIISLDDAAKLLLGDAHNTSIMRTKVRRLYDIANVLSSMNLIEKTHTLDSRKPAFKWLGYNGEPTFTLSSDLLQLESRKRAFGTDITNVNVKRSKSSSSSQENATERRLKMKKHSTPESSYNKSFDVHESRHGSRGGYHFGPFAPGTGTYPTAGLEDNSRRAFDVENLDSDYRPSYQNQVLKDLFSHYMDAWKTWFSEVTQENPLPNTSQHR
UniProt F4J4R5: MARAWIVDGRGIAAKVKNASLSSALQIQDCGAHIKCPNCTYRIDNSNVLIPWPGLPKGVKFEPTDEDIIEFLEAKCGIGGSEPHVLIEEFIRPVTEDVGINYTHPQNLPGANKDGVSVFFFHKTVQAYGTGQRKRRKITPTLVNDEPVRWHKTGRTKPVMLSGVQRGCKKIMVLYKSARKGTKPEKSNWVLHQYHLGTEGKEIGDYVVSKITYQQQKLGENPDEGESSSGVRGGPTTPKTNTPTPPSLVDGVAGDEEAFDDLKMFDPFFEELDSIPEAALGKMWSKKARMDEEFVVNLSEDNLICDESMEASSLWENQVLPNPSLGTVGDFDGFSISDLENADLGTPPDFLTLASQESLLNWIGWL

The target of experiment [3] is ONE2 (Y2H fusion) (Arabidopsis thaliana) (UniProt Q9C8K8).
Experiment [4] concerns the target E2FE (DEL1) (Y2H fusion) (Arabidopsis thaliana) (UniProt Q8LSZ4).
Experiment [5] has as its target T2, MYB3R3 (Y2H fusion) (Arabidopsis thaliana) (UniProt Q8H1P9).
T2 sequence: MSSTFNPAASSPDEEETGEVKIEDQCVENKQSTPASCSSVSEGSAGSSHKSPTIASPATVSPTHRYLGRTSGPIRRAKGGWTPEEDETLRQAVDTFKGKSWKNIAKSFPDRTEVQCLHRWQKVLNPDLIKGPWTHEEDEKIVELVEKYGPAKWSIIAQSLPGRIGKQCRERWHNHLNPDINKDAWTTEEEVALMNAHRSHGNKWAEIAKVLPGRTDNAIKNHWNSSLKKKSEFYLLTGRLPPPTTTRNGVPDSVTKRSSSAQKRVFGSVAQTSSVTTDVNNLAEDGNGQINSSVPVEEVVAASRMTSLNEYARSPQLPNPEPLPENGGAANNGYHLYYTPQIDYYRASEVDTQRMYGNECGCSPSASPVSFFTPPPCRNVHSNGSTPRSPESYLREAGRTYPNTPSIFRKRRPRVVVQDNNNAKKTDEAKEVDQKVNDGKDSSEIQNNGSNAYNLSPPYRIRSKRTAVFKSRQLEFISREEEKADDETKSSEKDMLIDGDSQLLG

Experiment [6] has as its target T3, TCX6 (Y2H fusion) (Arabidopsis thaliana) (UniProt Q9SL70).
T3 sequence: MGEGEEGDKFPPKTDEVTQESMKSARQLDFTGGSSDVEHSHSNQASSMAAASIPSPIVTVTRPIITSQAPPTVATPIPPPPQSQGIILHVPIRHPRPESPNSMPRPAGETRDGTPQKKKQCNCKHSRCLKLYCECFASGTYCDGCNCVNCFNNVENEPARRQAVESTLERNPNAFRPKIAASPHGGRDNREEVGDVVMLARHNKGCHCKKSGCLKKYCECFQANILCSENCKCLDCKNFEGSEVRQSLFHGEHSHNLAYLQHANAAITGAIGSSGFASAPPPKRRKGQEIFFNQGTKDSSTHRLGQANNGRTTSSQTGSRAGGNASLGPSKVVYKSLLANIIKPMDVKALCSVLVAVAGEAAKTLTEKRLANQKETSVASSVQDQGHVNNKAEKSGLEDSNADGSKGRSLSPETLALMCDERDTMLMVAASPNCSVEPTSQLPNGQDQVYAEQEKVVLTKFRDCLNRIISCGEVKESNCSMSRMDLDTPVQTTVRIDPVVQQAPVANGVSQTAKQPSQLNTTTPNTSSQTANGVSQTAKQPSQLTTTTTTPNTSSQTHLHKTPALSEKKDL

Results are given in words; binding and its absence hold for the method and conditions named. For some assays here: Binding calls can cover weak binding; strength is not graded here. For some assays here: Tags and fused reporters may be left off the sequences shown.

“AD-NAC044 (Y2H fusion) (from UniProt F4J4R5)”: the binding entry in experiment [1] is listed as “no binding”; in experiment [2], “binds”; in experiment [3], “no binding”.

As to “LIN52A (Y2H fusion) (Arabidopsis thaliana)”, in experiment [2], the binding entry was “no binding”. Still for that read-out and setting: then “LIN52B (Y2H fusion) (Arabidopsis thaliana)”, with “no binding”. Still for that read-out and setting: in the case of “NAC044 AxAxA mutant (Y2H fusion) (Arabidopsis thaliana)” it was “no binding”. In the case of ONE1 (Y2H fusion) (from UniProt F4IWE2), the binding entry in experiment [4], in experiment [5] and in experiment [3] was “binds” throughout.

As to “TCX6^AxAxA (Y2H fusion) (from UniProt Q9SL70)”, the binding result in experiment [2] is listed as “no binding”; in experiment [6], “binds”.
